Measured values as given in paper doi:10.1101/2023.03.27.534416 (bioRxiv, 2023).
Results are given in words; binding and its absence hold for the method and conditions named. Binding seen in cells or lysates may run through a third protein. Some results given as binding are weak or reduced against the parent protein; the word gives no strength. Where a sequence is shown, tags or fusion partners need not be part of it.

By UniProt entry, the sequences of proteins in these tests, tags left out.
UniProt P63167: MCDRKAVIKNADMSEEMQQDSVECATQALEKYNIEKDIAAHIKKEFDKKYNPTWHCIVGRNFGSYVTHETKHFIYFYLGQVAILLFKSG

B1: Myc-MRE11 N-terminal fragment (residues 1-181) (domain or fragment, UniProt P49959 1-181)
chain: MSTADALDDENTFKILVATDIHLGFMEKDAVRGNDTFVTLDEILRLAQENEVDFILLGGDLFHENKPSRKTLHTCLELLRKYCMGDRPVQFEILSDQSVNFGFSKFPWVNYQDGNLNISIPVFSIHGNHDDPTGADALCALDILSCAGFVNHFGRSMSVEKIDISPVLLQKGSTKIALYGL
B2: Myc-MRE11 fragment (residues 293-483) (domain or fragment, UniProt P49959 293-483)
chain: KMNMHKIPLHTVRQFFMEDIVLANHPDIFNPDNPKVTQAIQSFCLEKIEEMLENAERERLGNSHQPEKPLVRLRVDYSGGFEPFSVLRFSQKFVDRVANPKDIIHFFRHREQKEKTGEEINFGKLITKPSEGTTLRVEDLVKQYFQTAEKNVQLSLLTERGMGEAVQEFVDKEEKDAIEELVKYQLEKTQR

Biological target: Flag-DYNLL1 (UniProt P63167)
Experiment: co-IP

| Binder | binding |
| --- | --- |
| B1 | binds |
| B2 | binds |
